Test results: the supplement of paper PMC10849652
The list shows a part of the results.

Protein sequences, listed by entry. Tags and fused reporters are not part of them. Lines headed by an entry give the natural chain unless they say otherwise; changes in a name come on top.
UniProt Q9BQA9: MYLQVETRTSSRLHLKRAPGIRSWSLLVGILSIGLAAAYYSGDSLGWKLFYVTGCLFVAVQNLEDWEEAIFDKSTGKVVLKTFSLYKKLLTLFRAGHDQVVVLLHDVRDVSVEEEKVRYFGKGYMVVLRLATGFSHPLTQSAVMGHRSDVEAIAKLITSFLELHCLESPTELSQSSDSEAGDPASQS
UniProt Q6UX04: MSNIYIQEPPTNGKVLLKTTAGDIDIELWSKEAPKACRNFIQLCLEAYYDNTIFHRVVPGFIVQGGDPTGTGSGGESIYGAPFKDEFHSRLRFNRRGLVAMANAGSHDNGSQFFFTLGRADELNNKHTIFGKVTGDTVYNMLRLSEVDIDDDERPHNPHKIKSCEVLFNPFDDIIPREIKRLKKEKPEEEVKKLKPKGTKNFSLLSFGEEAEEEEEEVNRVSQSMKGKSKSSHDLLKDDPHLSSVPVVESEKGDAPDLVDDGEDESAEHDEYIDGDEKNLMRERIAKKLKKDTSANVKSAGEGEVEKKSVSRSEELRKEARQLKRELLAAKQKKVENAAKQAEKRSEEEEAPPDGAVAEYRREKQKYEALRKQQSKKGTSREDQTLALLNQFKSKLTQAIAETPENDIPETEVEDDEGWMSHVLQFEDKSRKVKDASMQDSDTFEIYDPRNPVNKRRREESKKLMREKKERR
UniProt P17812: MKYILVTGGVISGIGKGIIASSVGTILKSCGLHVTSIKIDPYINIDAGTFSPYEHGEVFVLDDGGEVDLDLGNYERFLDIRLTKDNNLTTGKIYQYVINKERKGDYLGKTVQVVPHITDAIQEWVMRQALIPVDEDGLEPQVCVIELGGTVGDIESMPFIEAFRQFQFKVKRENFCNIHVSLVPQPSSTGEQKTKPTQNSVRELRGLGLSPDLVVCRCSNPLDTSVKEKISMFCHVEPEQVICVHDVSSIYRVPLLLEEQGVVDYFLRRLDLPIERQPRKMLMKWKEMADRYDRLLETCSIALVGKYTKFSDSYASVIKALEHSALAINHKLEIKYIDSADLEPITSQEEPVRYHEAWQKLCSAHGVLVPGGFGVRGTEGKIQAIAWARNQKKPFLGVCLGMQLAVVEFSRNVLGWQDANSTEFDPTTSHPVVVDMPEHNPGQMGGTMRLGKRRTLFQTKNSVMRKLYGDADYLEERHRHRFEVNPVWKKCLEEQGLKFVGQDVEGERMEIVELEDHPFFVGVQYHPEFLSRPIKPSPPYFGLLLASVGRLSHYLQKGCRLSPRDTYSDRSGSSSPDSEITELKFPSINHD
UniProt P13498: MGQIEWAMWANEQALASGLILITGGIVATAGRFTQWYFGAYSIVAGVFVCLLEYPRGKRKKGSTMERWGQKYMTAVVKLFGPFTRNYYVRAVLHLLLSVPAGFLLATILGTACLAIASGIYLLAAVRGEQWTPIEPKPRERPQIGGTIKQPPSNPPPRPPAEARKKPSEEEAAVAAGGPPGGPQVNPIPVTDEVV
UniProt Q9NWV4: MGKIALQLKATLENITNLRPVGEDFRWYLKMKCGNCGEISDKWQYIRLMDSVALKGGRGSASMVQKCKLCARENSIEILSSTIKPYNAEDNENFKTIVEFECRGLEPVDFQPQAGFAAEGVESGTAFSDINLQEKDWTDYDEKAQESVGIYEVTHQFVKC
UniProt Q8NCG7: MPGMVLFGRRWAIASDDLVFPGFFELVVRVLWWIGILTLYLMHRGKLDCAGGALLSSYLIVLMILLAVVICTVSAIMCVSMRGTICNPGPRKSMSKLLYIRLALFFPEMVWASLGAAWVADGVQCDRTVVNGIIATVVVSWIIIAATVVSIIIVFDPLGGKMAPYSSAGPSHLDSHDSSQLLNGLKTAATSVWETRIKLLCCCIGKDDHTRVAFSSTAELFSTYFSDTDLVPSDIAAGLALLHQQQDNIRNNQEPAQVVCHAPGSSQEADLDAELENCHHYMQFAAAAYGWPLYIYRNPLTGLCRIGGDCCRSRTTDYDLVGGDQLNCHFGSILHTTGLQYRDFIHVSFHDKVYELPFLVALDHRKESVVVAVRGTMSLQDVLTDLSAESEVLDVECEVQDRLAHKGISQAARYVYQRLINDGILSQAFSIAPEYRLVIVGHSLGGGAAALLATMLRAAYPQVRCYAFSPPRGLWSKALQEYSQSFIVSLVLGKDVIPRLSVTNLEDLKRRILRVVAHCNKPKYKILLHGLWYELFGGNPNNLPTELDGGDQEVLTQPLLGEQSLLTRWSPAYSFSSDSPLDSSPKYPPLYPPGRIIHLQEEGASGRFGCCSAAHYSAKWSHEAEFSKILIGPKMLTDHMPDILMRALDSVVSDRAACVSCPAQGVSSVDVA
UniProt Q6PI48: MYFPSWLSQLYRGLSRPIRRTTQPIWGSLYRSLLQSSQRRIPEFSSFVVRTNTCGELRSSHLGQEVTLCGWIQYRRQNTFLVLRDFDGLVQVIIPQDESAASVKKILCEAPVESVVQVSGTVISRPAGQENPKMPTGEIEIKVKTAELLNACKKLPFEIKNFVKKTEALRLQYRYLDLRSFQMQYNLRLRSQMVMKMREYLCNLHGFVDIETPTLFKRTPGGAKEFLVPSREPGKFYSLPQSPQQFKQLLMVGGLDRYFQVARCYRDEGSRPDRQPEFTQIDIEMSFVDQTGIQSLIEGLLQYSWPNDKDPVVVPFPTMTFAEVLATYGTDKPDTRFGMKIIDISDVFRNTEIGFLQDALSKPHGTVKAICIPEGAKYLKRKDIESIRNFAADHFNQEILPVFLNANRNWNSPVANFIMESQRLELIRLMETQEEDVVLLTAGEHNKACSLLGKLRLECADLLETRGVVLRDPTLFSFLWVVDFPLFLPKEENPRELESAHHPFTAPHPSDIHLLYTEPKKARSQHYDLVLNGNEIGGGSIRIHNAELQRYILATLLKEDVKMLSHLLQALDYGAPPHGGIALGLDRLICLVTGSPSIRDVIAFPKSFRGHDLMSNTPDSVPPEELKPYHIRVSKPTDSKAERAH
UniProt Q16643: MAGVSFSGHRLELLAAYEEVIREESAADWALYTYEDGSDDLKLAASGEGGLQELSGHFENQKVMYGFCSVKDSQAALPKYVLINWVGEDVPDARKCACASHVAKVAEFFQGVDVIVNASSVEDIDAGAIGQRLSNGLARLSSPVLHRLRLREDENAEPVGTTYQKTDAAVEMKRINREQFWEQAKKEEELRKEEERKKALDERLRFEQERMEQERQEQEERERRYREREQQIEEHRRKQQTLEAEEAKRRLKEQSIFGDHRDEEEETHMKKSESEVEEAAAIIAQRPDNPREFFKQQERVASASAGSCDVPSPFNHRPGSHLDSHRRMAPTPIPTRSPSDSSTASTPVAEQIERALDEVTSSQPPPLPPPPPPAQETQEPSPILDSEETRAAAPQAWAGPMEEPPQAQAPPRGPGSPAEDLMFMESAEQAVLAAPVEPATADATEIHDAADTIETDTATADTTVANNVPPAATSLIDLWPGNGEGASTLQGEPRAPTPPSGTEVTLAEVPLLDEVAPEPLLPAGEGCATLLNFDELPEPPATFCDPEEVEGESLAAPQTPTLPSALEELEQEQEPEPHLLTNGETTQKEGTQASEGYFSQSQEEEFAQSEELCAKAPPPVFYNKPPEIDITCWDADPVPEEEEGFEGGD
UniProt P53634: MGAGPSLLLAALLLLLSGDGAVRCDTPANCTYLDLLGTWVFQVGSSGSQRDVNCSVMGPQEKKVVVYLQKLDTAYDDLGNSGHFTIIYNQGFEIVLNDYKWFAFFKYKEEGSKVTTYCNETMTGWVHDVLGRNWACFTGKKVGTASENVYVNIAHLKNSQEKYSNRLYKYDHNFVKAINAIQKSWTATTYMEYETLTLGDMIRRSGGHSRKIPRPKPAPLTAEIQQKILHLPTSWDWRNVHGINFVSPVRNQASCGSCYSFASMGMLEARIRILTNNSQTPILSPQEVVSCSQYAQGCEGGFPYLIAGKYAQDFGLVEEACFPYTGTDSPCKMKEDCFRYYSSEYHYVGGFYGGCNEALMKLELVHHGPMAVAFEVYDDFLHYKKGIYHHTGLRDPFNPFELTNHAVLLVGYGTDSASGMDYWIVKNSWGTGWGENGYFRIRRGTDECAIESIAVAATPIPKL
UniProt P11182, whole entry, looked up: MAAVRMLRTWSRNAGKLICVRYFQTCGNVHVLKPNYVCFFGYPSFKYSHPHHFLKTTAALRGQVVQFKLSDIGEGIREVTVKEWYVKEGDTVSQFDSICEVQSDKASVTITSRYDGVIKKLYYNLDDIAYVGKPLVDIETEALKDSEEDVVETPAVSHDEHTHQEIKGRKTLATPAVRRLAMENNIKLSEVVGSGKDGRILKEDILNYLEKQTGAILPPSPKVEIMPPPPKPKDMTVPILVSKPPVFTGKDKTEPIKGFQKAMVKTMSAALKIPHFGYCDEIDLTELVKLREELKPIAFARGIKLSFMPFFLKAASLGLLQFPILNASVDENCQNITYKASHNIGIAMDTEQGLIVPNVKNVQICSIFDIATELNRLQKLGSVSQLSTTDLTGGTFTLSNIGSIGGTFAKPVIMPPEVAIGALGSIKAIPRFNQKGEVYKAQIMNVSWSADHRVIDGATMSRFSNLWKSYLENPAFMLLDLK
UniProt P39880: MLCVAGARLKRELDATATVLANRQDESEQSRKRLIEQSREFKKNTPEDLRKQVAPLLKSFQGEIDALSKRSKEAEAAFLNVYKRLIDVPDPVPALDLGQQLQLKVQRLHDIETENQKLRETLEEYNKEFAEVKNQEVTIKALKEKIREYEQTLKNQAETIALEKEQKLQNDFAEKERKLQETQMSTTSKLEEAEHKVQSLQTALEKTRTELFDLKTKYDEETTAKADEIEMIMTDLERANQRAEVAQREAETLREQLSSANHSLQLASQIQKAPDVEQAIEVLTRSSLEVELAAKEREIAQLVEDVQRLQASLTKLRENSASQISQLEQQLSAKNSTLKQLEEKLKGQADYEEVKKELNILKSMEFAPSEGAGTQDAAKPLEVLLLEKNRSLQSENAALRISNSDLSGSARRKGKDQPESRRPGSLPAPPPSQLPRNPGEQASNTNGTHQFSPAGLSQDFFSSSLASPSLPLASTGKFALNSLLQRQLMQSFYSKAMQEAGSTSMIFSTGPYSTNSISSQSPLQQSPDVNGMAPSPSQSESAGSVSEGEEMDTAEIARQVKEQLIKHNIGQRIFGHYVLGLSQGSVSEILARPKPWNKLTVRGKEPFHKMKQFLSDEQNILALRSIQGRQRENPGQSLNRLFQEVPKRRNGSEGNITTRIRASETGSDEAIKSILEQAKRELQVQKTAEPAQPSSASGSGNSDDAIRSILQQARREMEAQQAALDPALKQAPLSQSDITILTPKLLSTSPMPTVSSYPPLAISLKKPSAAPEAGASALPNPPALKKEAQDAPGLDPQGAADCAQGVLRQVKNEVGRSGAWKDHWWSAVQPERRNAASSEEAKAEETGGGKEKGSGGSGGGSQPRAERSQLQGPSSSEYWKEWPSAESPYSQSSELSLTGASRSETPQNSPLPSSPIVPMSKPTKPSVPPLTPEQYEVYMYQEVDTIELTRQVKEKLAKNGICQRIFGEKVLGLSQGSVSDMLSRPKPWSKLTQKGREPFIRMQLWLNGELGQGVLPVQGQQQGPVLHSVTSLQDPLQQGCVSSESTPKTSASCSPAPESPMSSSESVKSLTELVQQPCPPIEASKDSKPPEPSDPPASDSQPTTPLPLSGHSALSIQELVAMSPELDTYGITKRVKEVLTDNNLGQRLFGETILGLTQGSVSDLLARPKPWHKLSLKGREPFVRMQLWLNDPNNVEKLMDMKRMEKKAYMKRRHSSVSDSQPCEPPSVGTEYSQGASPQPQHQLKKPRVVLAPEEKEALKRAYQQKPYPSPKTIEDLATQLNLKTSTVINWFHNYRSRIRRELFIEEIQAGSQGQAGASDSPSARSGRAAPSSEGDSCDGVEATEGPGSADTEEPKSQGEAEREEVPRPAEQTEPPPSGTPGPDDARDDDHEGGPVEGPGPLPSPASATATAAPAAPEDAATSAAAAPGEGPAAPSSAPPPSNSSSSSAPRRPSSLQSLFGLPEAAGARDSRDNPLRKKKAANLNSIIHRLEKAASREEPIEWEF
UniProt Q69YN2: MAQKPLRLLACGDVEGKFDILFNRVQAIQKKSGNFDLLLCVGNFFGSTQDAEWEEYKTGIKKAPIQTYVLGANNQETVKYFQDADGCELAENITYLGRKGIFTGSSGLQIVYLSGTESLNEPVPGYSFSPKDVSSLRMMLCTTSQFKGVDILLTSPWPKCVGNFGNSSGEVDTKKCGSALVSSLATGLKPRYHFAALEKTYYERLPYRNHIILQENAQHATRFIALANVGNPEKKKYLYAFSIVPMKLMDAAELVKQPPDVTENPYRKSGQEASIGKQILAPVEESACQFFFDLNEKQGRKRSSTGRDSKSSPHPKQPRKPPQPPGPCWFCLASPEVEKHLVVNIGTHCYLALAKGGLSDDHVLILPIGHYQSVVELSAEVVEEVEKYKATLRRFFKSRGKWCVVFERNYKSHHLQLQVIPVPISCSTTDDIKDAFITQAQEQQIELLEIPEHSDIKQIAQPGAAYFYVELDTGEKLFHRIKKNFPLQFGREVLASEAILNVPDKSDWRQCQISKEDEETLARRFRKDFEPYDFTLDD

Experiments:
Assay in all cases: log2 fold change, soluble protein after heating vs DMSO (PISA); higher = thermal stabilisation; K562 cells, 10 uM, 30 min; active = over 0.2 and 3.5 SD of the protein, either way, in both replicates (recomputed)
bafetinib = compound: Cc1ccc(NC(=O)c2ccc(CN3CC[C@H](N(C)C)C3)c(C(F)(F)F)c2)cc1Nc1nccc(-c2cncnc2)n1 [bafetinib]
Procedure, shortened: (§1)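 K562 cells (2×10^6 cells/mL) were treated with 10 μM compound for 30 min, and aliquots were heated for 3 min over 48°C-58°C. Pooled aliquots were extracted in PBS with 0.5% NP-40 at 4°C, and the supernatant after 21,000xg for 90 min was measured by TMTpro 16plex LC-MS/MS with channel sums equalised. Reported thermal stability, relative to control samples and from duplicates, is a log2 fold change.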

[1] = compound: Cc1cccc(CC(=O)N2CCc3c2ccc(-c2cn(C)c4ncnc(N)c24)c3F)n1
Procedure, shortened: as §1

nilotinib = compound: Cc1cn(-c2cc(NC(=O)c3ccc(C)c(Nc4nccc(-c5cccnc5)n4)c3)cc(C(F)(F)F)c2)cn1 [nilotinib]
Procedure, shortened: as §1

[2] = compound: Cc1nc(Nc2n[nH]c3c2CN(C(=O)N[C@H](CN(C)C)c2ccccc2)C3(C)C)c2sccc2n1
Procedure, shortened: as §1

dasatinib = compound: Cc1nc(Nc2ncc(C(=O)Nc3c(C)cccc3Cl)s2)cc(N2CCN(CCO)CC2)n1 [dasatinib]
Procedure, shortened: as §1

[3] = compound: Cc1ncc(-c2ccnc(Nc3ccc(S(C)(=O)=O)cc3)n2)n1C(C)C
Procedure, shortened: as §1

[4] = compound: Cn1cc(-c2ccc3c(c2)CCN3C(=O)Cc2cccc(C(F)(F)F)c2)c2c(N)ncnc21
Procedure, shortened: as §1

[5] = compound: Cn1cc(-c2ccc3nnc(C(F)(F)c4ccc5ncccc5c4)n3n2)cn1
Procedure, shortened: as §1

tipifarnib = compound: Cn1cncc1[C@@](N)(c1ccc(Cl)cc1)c1ccc2c(c1)c(-c1cccc(Cl)c1)cc(=O)n2C [tipifarnib]
Procedure, shortened: as §1

mubritinib = compound: FC(F)(F)c1ccc(/C=C/c2nc(COc3ccc(CCCCn4ccnn4)cc3)co2)cc1 [mubritinib]
Procedure, shortened: as §1

[6] = compound: NC(=O)Nc1cc(-c2cccc(F)c2)sc1C(=O)N[C@H]1CCCNC1
Procedure, shortened: as §1

[7] = compound: NC(=O)c1cnc(N[C@@H]2CCCC[C@@H]2N)nc1Nc1cccc(-n2nccn2)c1
Procedure, shortened: as §1

[8] = compound: NC1(c2ccc(-c3nc4ccn5c(=O)[nH]nc5c4cc3-c3ccccc3)cc2)CCC1
Procedure, shortened: as §1

[9] = compound: NCC(=O)Nc1ccc(-n2nc(C(F)(F)F)cc2-c2ccc3c(ccc4ccccc43)c2)cc1
Procedure, shortened: as §1

entinostat = compound: Nc1ccccc1NC(=O)c1ccc(CNC(=O)OCc2cccnc2)cc1 [entinostat]
Procedure, shortened: as §1

vorinostat = compound: O=C(CCCCCCC(=O)Nc1ccccc1)NO [vorinostat]
Procedure, shortened: as §1

citarinostat = compound: O=C(CCCCCCNC(=O)c1cnc(N(c2ccccc2)c2ccccc2Cl)nc1)NO [citarinostat]
Procedure, shortened: as §1

silmitasertib = compound: O=C(O)c1ccc2c(c1)nc(Nc1cccc(Cl)c1)c1ccncc12 [silmitasertib]
Procedure, shortened: as §1

[10] = compound: O=C1NC(=O)C(c2cnc3ccccn23)=C1c1cn2c3c(cc(F)cc13)CN(C(=O)N1CCCCC1)CC2
Procedure, shortened: as §1

[11] = compound: c1cc(OCCN2CCCCC2)cc(-c2n[nH]c3ccc(-c4nnc[nH]4)cc23)c1
Procedure, shortened: as §1

Row | Target | log2 fold change (bafetinib) | log2 fold change [1] | log2 fold change (nilotinib) | log2 fold change [2] | log2 fold change (dasatinib) | log2 fold change [3] | log2 fold change [4] | log2 fold change [5] | log2 fold change (tipifarnib) | log2 fold change (mubritinib) | log2 fold change [6] | log2 fold change [7] | log2 fold change [8] | log2 fold change [9] | log2 fold change (entinostat) | log2 fold change (vorinostat) | log2 fold change (citarinostat) | log2 fold change (silmitasertib) | log2 fold change [10] | log2 fold change [11]
1 | CYBC1 (UniProt Q9BQA9) | inactive: -0.124 | inactive: -0.032 | inactive: -0.051 | inactive: -0.014 | inactive: 0.015 | inactive: -0.006 | inactive: 0.041 | inactive: 0.05 | inactive: -0.022 | inactive: 0.088 | inactive: -0.013 | inactive: -0.029 | inactive: -0.021 | inactive: 0.009 | inactive: -0.013 | inactive: 0 | inactive: 0.032 | inactive: 0.053 | inactive: 0.015 | inactive: -0.08
2 | CWC27 (UniProt Q6UX04) | inactive: -0.147 | inactive: -0.059 | inactive: -0.058 | inactive: -0.094 | inactive: -0.087 | inactive: 0.132 | inactive: 0.056 | inactive: 0.022 | inactive: -0.146 | inactive: 0.109 | inactive: -0.062 | inactive: 0.016 | inactive: -0.142 | inactive: -0.103 | inactive: 0.113 | inactive: 0.062 | inactive: 0.089 | inactive: 0.062 | inactive: -0.092 | inactive: 0.026
3 | CTPS1 (UniProt P17812) | inactive: -0.027 | inactive: -0.022 | inactive: -0.019 | inactive: -0.004 | inactive: 0.012 | inactive: 0.01 | inactive: 0.029 | inactive: 0.018 | inactive: -0.011 | inactive: 0 | inactive: 0.002 | inactive: 0.005 | inactive: -0.025 | inactive: 0.023 | inactive: -0.018 | inactive: -0.036 | inactive: 0.013 | inactive: -0.005 | inactive: -0.029 | inactive: -0.009
4 | CYBA (UniProt P13498) | active: -0.24 | inactive: -0.06 | inactive: 0.01 | inactive: 0.034 | inactive: -0.077 | inactive: 0.026 | inactive: 0.002 | inactive: 0.004 | inactive: 0 | inactive: 0.006 | inactive: -0.028 | inactive: -0.141 | inactive: -0.044 | inactive: -0.13 | inactive: -0.004 | inactive: 0.018 | inactive: -0.01 | inactive: 0 | inactive: -0.01 | inactive: -0.041
5 | CZIB (UniProt Q9NWV4) | inactive: -0.075 | inactive: -0.026 | inactive: 0.012 | inactive: -0.012 | inactive: -0.016 | inactive: 0.018 | inactive: -0.012 | inactive: 0.023 | inactive: 0.017 | inactive: 0.019 | inactive: -0.057 | inactive: -0.059 | inactive: -0.031 | inactive: -0.05 | inactive: -0.031 | inactive: 0.01 | inactive: 0.025 | inactive: 0.001 | inactive: -0.075 | inactive: -0.029
6 | DAGLB (UniProt Q8NCG7) | inactive: -0.045 | inactive: -0.031 | inactive: 0.005 | inactive: 0.001 | inactive: -0.014 | inactive: -0.015 | inactive: 0.011 | inactive: 0.087 | inactive: -0.014 | inactive: 0.078 | inactive: 0.027 | inactive: -0.03 | inactive: -0.012 | inactive: -0.04 | inactive: -0.004 | inactive: 0.056 | inactive: 0.027 | inactive: -0.045 | inactive: -0.02 | inactive: 0
7 | DARS2 (UniProt Q6PI48) | inactive: 0.002 | inactive: -0.025 | inactive: -0.011 | inactive: 0.065 | inactive: 0.02 | inactive: 0 | inactive: -0.015 | inactive: -0.014 | inactive: -0.013 | inactive: -0.01 | inactive: 0.003 | inactive: 0.005 | inactive: -0.016 | inactive: 0.027 | inactive: -0.029 | inactive: 0.017 | inactive: 0.052 | inactive: 0.027 | inactive: 0.004 | inactive: -0.025
8 | DCTN4 (UniProt Q9UJW0) | inactive: -0.053 | inactive: 0 | inactive: -0.026 | inactive: 0 | inactive: -0.02 | inactive: -0.007 | inactive: -0.006 | inactive: -0.03 | inactive: 0.02 | inactive: 0.037 | inactive: 0.102 | inactive: 0.032 | inactive: -0.031 | inactive: 0.021 | inactive: -0.109 | inactive: -0.013 | inactive: -0.046 | inactive: 0.025 | inactive: -0.03 | inactive: -0.108
9 | DBN1 isoform 3 (UniProt Q16643) | inactive: -0.106 | inactive: 0.032 | inactive: -0.05 | inactive: -0.043 | active: 0.264 | inactive: -0.041 | inactive: -0.22 | inactive: -0.069 | inactive: 0.086 | inactive: 0 | inactive: 0.098 | inactive: 0.027 | inactive: -0.039 | inactive: -0.003 | inactive: -0.036 | inactive: 0.128 | inactive: -0.032 | inactive: 0.066 | inactive: -0.03 | inactive: -0.053
10 | DAP3 (UniProt P51398) | inactive: 0.133 | inactive: 0.133 | inactive: -0.102 | inactive: 0.023 | inactive: -0.026 | inactive: -0.006 | inactive: -0.019 | inactive: 0.04 | inactive: -0.056 | inactive: 0.087 | inactive: 0.021 | inactive: -0.008 | inactive: -0.045 | inactive: 0.009 | inactive: 0.02 | inactive: 0.083 | inactive: 0.025 | inactive: -0.033 | inactive: -0.049 | inactive: 0.01
11 | DCTN1 isoform 4 (UniProt Q14203) | inactive: 0.057 | inactive: 0.037 | inactive: -0.052 | inactive: -0.052 | inactive: -0.256 | inactive: -0.018 | inactive: 0.003 | inactive: -0.015 | inactive: -0.054 | inactive: 0.038 | inactive: 0.002 | inactive: -0.052 | inactive: -0.033 | inactive: 0.019 | inactive: 0.049 | inactive: 0.029 | inactive: 0.007 | inactive: 0.046 | inactive: 0.081 | inactive: -0.089
12 | CTSC (UniProt P53634) | active: -0.452 | inactive: -0.004 | inactive: -0.008 | inactive: 0 | inactive: 0.046 | inactive: -0.033 | inactive: 0.041 | inactive: 0.004 | inactive: -0.039 | inactive: 0.056 | inactive: 0.019 | inactive: -0.015 | inactive: -0.11 | inactive: 0.086 | inactive: -0.053 | inactive: -0.016 | inactive: 0.015 | inactive: -0.053 | inactive: -0.057 | inactive: 0.063
13 | DBT (UniProt P11182) | inactive: 0.02 | inactive: -0.037 | inactive: 0.036 | inactive: -0.014 | inactive: -0.002 | inactive: -0.033 | inactive: -0.026 | inactive: -0.03 | inactive: 0.011 | active: -0.207 | inactive: -0.009 | inactive: 0.003 | inactive: 0.005 | inactive: -0.021 | inactive: -0.042 | inactive: 0.006 | inactive: -0.011 | inactive: 0.027 | inactive: 0.022 | inactive: -0.093
14 | CYB5R2 (UniProt Q6BCY4) | inactive: -0.041 | inactive: -0.041 | inactive: -0.013 | inactive: 0.017 | inactive: 0.045 | inactive: -0.024 | inactive: -0.01 | inactive: 0.018 | inactive: 0.047 | inactive: 0.053 | inactive: -0.003 | inactive: 0.032 | inactive: 0.009 | inactive: -0.021 | inactive: -0.02 | inactive: -0.096 | inactive: -0.001 | inactive: -0.005 | inactive: -0.065 | inactive: -0.017
15 | CUX1 isoform 3 (UniProt P39880) | inactive: -0.054 | inactive: -0.032 | inactive: -0.008 | inactive: -0.06 | inactive: -0.016 | inactive: 0.044 | inactive: 0.023 | inactive: 0.08 | inactive: 0.046 | inactive: 0.037 | inactive: -0.016 | inactive: -0.006 | inactive: -0.034 | inactive: -0.076 | inactive: -0.028 | inactive: 0.034 | inactive: 0.019 | inactive: 0.046 | inactive: -0.022 | inactive: -0.004
16 | CWF19L1 (UniProt Q69YN2) | inactive: 0.025 | inactive: -0.015 | inactive: 0.011 | inactive: -0.011 | inactive: -0.056 | inactive: 0.026 | inactive: -0.076 | inactive: -0.016 | inactive: -0.012 | inactive: 0.056 | inactive: 0.072 | inactive: 0.027 | inactive: -0.051 | inactive: -0.067 | inactive: 0.009 | inactive: -0.034 | inactive: 0.012 | inactive: 0.016 | inactive: -0.053 | inactive: -0.019

Looked up one by one from the entries so far (two):
Row | Target | log2 fold change (bafetinib) | log2 fold change [1] | log2 fold change (nilotinib) | log2 fold change [2] | log2 fold change (dasatinib) | log2 fold change [3] | log2 fold change [4] | log2 fold change [5] | log2 fold change (tipifarnib) | log2 fold change (mubritinib) | log2 fold change [6] | log2 fold change [7] | log2 fold change [8] | log2 fold change [9] | log2 fold change (entinostat) | log2 fold change (vorinostat) | log2 fold change (citarinostat) | log2 fold change (silmitasertib) | log2 fold change [10] | log2 fold change [11]
14 | CYB5R2 (UniProt Q6BCY4) | inactive: -0.041 | inactive: -0.041 | inactive: -0.013 | inactive: 0.017 | inactive: 0.045 | inactive: -0.024 | inactive: -0.01 | inactive: 0.018 | inactive: 0.047 | inactive: 0.053 | inactive: -0.003 | inactive: 0.032 | inactive: 0.009 | inactive: -0.021 | inactive: -0.02 | inactive: -0.096 | inactive: -0.001 | inactive: -0.005 | inactive: -0.065 | inactive: -0.017
9 | DBN1 isoform 3 (UniProt Q16643) | inactive: -0.106 | inactive: 0.032 | inactive: -0.05 | inactive: -0.043 | active: 0.264 | inactive: -0.041 | inactive: -0.22 | inactive: -0.069 | inactive: 0.086 | inactive: 0 | inactive: 0.098 | inactive: 0.027 | inactive: -0.039 | inactive: -0.003 | inactive: -0.036 | inactive: 0.128 | inactive: -0.032 | inactive: 0.066 | inactive: -0.03 | inactive: -0.053
